Results taken from the supplement of paper PMC3353916.

System: Sindbis virus TE/5'2J-GFP
Assay: percent infected (GFP+ in RFP+ ISG-expressing cells); higher = more infection (less antiviral activity)
Details: experiment: primary screen (single well)

MATAPSYPAGLPGSPGPGSPPPPGGLELQSPPPLLPQIPAPGSGVSFHIQIGLTREFVLLPAASELAHVKQLACSIVDQKFPECGFYGLYDKILLFKHDPTSANLLQLVRSSGDIQEGDLVEVVLSASATFEDFQIRPHALTVHSYRAPAFCDHCGEMLFGLVRQGLKCDGCGLNYHKRCAFSIPNNCSGARKRRLSSTSLASGHSVRLGTSESLPCTAEELSRSTTELLPRRPPSSSSSSSASSYTGRPIELDKMLLSKVKVPHTFLIHSYTRPTVCQACKKLLKGLFRQGLQCKDCKFNCHKRCATRVPNDCLGEALINGDVPMEEATDFSEADKSALMDESEDSGVIPGSHSENALHASEEEEGEGGKAQSSLGYIPLMRVVQSVRHTTRKSSTTLREGWVVHYSNKDTLRKRHYWRLDCKCITLFQNNTTNRYYKEIPLSEILTVESAQNFSLVPPGTNPHCFEIVTANATYFVGEMPGGTPGGPSGQGAEAARGWETAIRQALMPVILQDAPSAPGHAPHRQASLSISVSNSQIQENVDIATVYQIFPDEVLGSGQFGVVYGGKHRKTGRDVAVKVIDKLRFPTKQESQLRNEVAILQSLRHPGIVNLECMFETPEKVFVVMEKLHGDMLEMILSSEKGRLPERLTKFLITQILVALRHLHFKNIVHCDLKPENVLLASADPFPQVKLCDFGFARIIGEKSFRRSVVGTPAYLAPEVLLNQGYNRSLDMWSVGVIMYVSLSGTFPFNEDEDINDQIQNAAFMYPASPWSHISAGAIDLINNLLQVKMRKRYSVDKSLSHPWLQEYQTWLDLRELEGKMGERYITHESDDARWEQFAAEHPLPGSGLPTDRDLGGACPPQDHDMQGLAERISVL [PRKD2]
percent infected (BHK/HA-Zeo (control)): 98.7% | percent infected (BHK/NZAP-Zeo (ZAP)): 98.3%

MATERSRSAMDSPVPASMFAPEPSSPGAARAAAAAARLHGGFDSDCSEDGEALNGEPELDLTSKLVLVSPTSEQYDSLLRQMWERMDEGCGETIYVIGQGSDGTEYGLSEADMEASYATVKSMAEQIEADVILLRERQEAGGRVRDYLVRKRVGDNDFLEVRVAVVGNVDAGKSTLLGVLTHGELDNGRGFARQKLFRHKHEIESGRTSSVGNDILGFDSEGNVVNKPDSHGGSLEWTKICEKSTKVITFIDLAGHEKYLKTTVFGMTGHLPDFCMLMVGSNAGIVGMTKEHLGLALALNVPVFVVVTKIDMCPANILQETLKLLQRLLKSPGCRKIPVLVQSKDDVIVTASNFSSERMCPIFQISNVTGENLDLLKMFLNLLSPRTSYREEEPAEFQIDDTYSVPGVGTVVSGTTLRGLIKLNDTLLLGPDPLGNFLSIAVKSIHRKRMPVKEVRGGQTASFALKKIKRSSIRKGMVMVSPRLNPQASWEFEAEILVLHHPTTISPRYQAMVHCGSIRQTATILSMDKDCLRTGDKATVHFRFIKTPEYLHIDQRLVFREGRTKAVGTITKLLQTTNNSPMNSKPQQIKMQSTKKGPLTKRDEGGPSGGPAVGAPPPGDEASSVGAGQPAASSNLQPQPKPSSGGRRRGGQRHKVKSQGACVTPASGC [GTPBP1]
percent infected (BHK/HA-Zeo (control)): 97.3% | percent infected (BHK/NZAP-Zeo (ZAP)): 83.2%

MAVMEMACPGAPGSAVGQQKELPKAKEKTPPLGKKQSSVYKLEAVEKSPVFCGKWEILNDVITKGTAKEGSEAGPAAISIIAQAECENSQEFSPTFSERIFIAGSKQYSQSESLDQIPNNVAHATEGKMARVCWKGKRRSKARKKRKKKSSKSLAHAGVALAKPLPRTPEQESCTIPVQEDESPLGAPYVRNTPQFTKPLKEPGLGQLCFKQLGEGLRPALPRSELHKLISPLQCLNHVWKLHHPQDGGPLPLPTHPFPYSRLPHPFPFHPLQPWKPHPLESFLGKLACVDSQKPLPDPHLSKLACVDSPKPLPGPHLEPSCLSRGAHEKFSVEEYLVHALQGSVSSGQAHSLTSLAKTWAARGSRSREPSPKTEDNEGVLLTEKLKPVDYEYREEVHWATHQLRLGRGSFGEVHRMEDKQTGFQCAVKKVRLEVFRAEELMACAGLTSPRIVPLYGAVREGPWVNIFMELLEGGSLGQLVKEQGCLPEDRALYYLGQALEGLEYLHSRRILHGDVKADNVLLSSDGSHAALCDFGHAVCLQPDGLGKSLLTGDYIPGTETHMAPEVVLGRSCDAKVDVWSSCCMMLHMLNGCHPWTQFFRGPLCLKIASEPPPVREIPPSCAPLTAQAIQEGLRKEPIHRVSAAELGGKVNRALQQVGGLKSPWRGEYKEPRHPPPNQANYHQTLHAQPRELSPRAPGPRPAEETTGRAPKLQPPLPPEPPEPNKSPPLTLSKEESGMWEPLPLSSLEPAPARNPSSPERKATVPEQELQQLEIELFLNSLSQPFSLEEQEQILSCLSIDSLSLSDDSEKNPSKASQSSRDTLSSGVHSWSSQAEARSSSWNMVLARGRPTDTPSYFNGVKVQIQSLNGEHLHIREFHRVKVGDIATGISSQIPAAAFSLVTKDGQPVRYDMEVPDSGIDLQCTLAPDGSFAWSWRVKHGQLENRP [MAP3K14]
percent infected (BHK/NZAP-Zeo (ZAP)): 67.8%

MAVTTRLTWLHEKILQNHFGGKRLSLLYKGSVHGFRNGVLLDRCCNQGPTLTVIYSEDHIIGAYAEESYQEGKYASIILFALQDTKISEWKLGLCTPETLFCCDVTKYNSPTNFQIDGRNRKVIMDLKTMENLGLAQNCTISIQDYEVFRCEDSLDERKIKGVIELRKSLLSALRTYEPYGSLVQQIRILLLGPIGAGKSSFFNSVRSVFQGHVTHQALVGTNTTGISEKYRTYSIRDGKDGKYLPFILCDSLGLSEKEGGLCRDDIFYILNGNIRDRYQFNPMESIKLNHHDYIDSPSLKDRIHCVAFVFDASSIQYFSSQMIVKIKRIRRELVNAGVVHVALLTHVDSMDLITKGDLIEIERCEPVRSKLEEVQRKLGFALSDISVVSNYSSEWELDPVKDVLILSALRRMLWAADDFLEDLPFEQIGNLREEIINCAQGKK [IFI44]
percent infected (BHK/HA-Zeo (control)): 97.5% | percent infected (BHK/NZAP-Zeo (ZAP)): 95.1%

MAYPGYGGGFGNFSIQVPGMQMGQPVPETGPAILLDGYSGPAYSDTYSSAGDSVYTYFSAVAGQDGEVDAEELQRCLTQSGINGTYSPFSLETCRIMIAMLDRDHTGKMGFNAFKELWAALNAWKENFMTVDQDGSGTVEHHELRQAIGLMGYRLSPQTLTTIVKRYSKNGRIFFDDYVACCVKLRALTDFFRKRDHLQQGSANFIYDDFLQGTMAI [GCA]
percent infected (BHK/HA-Zeo (control)): 98.6% | percent infected (BHK/NZAP-Zeo (ZAP)): 97.5%

MCSAGELLRGGDGGERDEDGDALAEREAAGTGWDPGASPRRRGQRPKESEQDVEDSQNHTGEPVGDDYKKMGTLFGELNKNLINMGFTRMYFGERIVEPVIVIFFWVMLWFLGLQALGLVAVLCLVIIYVQQ [C4orf32]
percent infected (BHK/HA-Zeo (control)): 95% | percent infected (BHK/NZAP-Zeo (ZAP)): 94.5%

MCSTSGCDLEEIPLDDDDLNTIEFKILAYYTRHHVFKSTPALFSPKLLRTRSLSQRGLGNCSANESWTEVSWPCRNSQSSEKAINLGKKKSSWKAFFGVVEKEDSQSTPAKVSAQGQRTLEYQDSHSQQWSRCLSNVEQCLEHEAVDPKVISIANRVAEIVYSWPPPQATQAGGFKSKEIFVTEGLSFQLQGHVPVASSSKKDEEEQILAKIVELLKYSGDQLERKLKKDKALMGHFQDGLSYSVFKTITDQVLMGVDPRGESEVKAQGFKAALVIDVTAKLTAIDNHPMNRVLGFGTKYLKENFSPWIQQHGGWEKILGISHEEVD [BCL2L14]
percent infected (BHK/HA-Zeo (control)): 87.9% | percent infected (BHK/NZAP-Zeo (ZAP)): 89.7%

MCTKMEQPFYHDDSYTATGYGRAPGGLSLHDYKLLKPSLAVNLADPYRSLKAPGARGPGPEGGGGGSYFSGQGSDTGASLKLASSELERLIVPNSNGVITTTPTPPGQYFYPRGGGSGGGAGGAGGGVTEEQEGFADGFVKALDDLHKMNHVTPPNVSLGATGGPPAGPGGVYAGPEPPPVYTNLSSYSPASASSGGAGAAVGTGSSYPTTTISYLPHAPPFAGGHPAQLGLGRGASTFKEEPQTVPEARSRDATPPVSPINMEDQERIKVERKRLRNRLAATKCRKRKLERIARLEDKVKTLKAENAGLSSTAGLLREQVAQLKQKVMTHVSNGCQLLLGVKGHAF [JUNB]
percent infected (BHK/HA-Zeo (control)): 98.2% | percent infected (BHK/NZAP-Zeo (ZAP)): 98.1%

MDAPHSKAALDSINELPENILLELFTHVPARQLLLNCRLVCSLWRDLIDLMTLWKRKCLREGFITKDWDQPVADWKIFYFLRSLHRNLLRNPCAEEDMFAWQIDFNGGDRWKVESLPGAHGTDFPDPKVKKYFVTSYEMCLKSQLVDLVAEGYWEELLDTFRPDIVVKDWFAARADCGCTYQLKVQLASADYFVLASFEPPPVTIQQWNNATWTEVSYTFSDYPRGVRYILFQHGGRDTQYWAGWYGPRVTNSSIVVSPKMTRNQASSEAQPGQKHGQEEAAQSPYRAVVQIF [FBXO6]
percent infected (BHK/HA-Zeo (control)): 96.8% | percent infected (BHK/NZAP-Zeo (ZAP)): 81.9%

MDDPDCDSTWEEDEEDAEDAEDEDCEDGEAAGARDADAGDEDEESEEPRAARPSSFQSRMTGSRNWRATRDMCRYRHNYPDLVERDCNGDTPNLSFYRNEIRFLPNGCFIEDILQNWTDNYDLLEDNHSYIQWLFPLREPGVNWHAKPLTLREVEVFKSSQEIQERLVRAYELMLGFYGIRLEDRGTGTVGRAQNYQKRFQNLNWRSHNNLRITRILKSLGELGLEHFQAPLVRFFLEETLVRRELPGVRQSALDYFMFAVRCRHQRRQLVHFAWEHFRPRCKFVWGPQDKLRRFKPSSLPHPLEGSRKVEEEGSPGDPDHEASTQGRTCGPEHSKGGGRVDEGPQPRSVEPQDAGPLERSQGDEAGGHGEDRPEPLSPKESKKRKLELSRREQPPTEPGPQSASEVEKIALNLEGCALSQGSLRTGTQEVGGQDPGEAVQPCRQPLGARVADKVRKRRKVDEGAGDSAAVASGGAQTLALAGSPAPSGHPKAGHSENGVEEDTEGRTGPKEGTPGSPSETPGPSPAGPAGDEPAESPSETPGPRPAGPAGDEPAESPSETPGPRPAGPAGDEPAESPSETPGPSPAGPTRDEPAESPSETPGPRPAGPAGDEPAESPSETPGPRPAGPAGDEPAESPSETPGPSPAGPTRDEPAKAGEAAELQDAEVESSAKSGKP [OGFR]
percent infected (BHK/HA-Zeo (control)): 98.5% | percent infected (BHK/NZAP-Zeo (ZAP)): 97.8%

MDEDEKDRAKRASRNKSEKKRRDQFNVLIKELSSMLPGNTRKMDKTTVLEKVIGFLQKHNEVSAQTEICDIQQDWKPSFLSNEEFTQLMLEALDGFIIAVTTDGSIIYVSDSITPLLGHLPSDVMDQNLLNFLPEQEHSEVYKILSSHMLVTDSPSPEYLKSDSDLEFYCHLLRGSLNPKEFPTYEYIKFVGNFRSYNNVPSPSCNGFDNTLSRPCRVPLGKEVCFIATVRLATPQFLKEMCIVDEPLEEFTSRHSLEWKFLFLDHRAPPIIGYLPFEVLGTSGYDYYHIDDLELLARCHQHLMQFGKGKSCCYRFLTKGQQWIWLQTHYYITYHQWNSKPEFIVCTHSVVSYADVRVERRQELALEDPPSEALHSSALKDKGSSLEPRQHFNTLDVGASGLNTSHSPSASSRSSHKSSHTAMSEPTSTPTKLMAEASTPALPRSATLPQELPVPGLSQAATMPAPLPSPSSCDLTQQLLPQTVLQSTPAPMAQFSAQFSMFQTIKDQLEQRTRILQANIRWQQEELHKIQEQLCLVQDSNVQMFLQQPAVSLSFSSTQRPEAQQQLQQRSAAVTQPQLGAGPQLPGQISSAQVTSQHLLRESSVISTQGPKPMRSSQLMQSSGRSGSSLVSPFSSATAALPPSLNLTTPASTSQDASQCQPSPDFSHDRQLRLLLSQPIQPMMPGSCDARQPSEVSRTGRQVKYAQSQTVFQNPDAHPANSSSAPMPVLLMGQAVLHPSFPASQPSPLQPAQARQQPPQHYLQVQAPTSLHSEQQDSLLLSTYSQQPGTLGYPQPPPAQPQPLRPPRRVSSLSESSGLQQPPR [NPAS2]
percent infected (BHK/NZAP-Zeo (ZAP)): 92%

Single values of this set are uncertain.
